Data published in US12281335B2, “Methods and compositions for delivery of viral vectors across the blood-brain barrier” (priority 2017, dated 2025).
Ends that are not written are not given here.

Test system: AAV9 virion
Experiment: Phage display selection in vivo and on AAV9-coated plates, sequencing of phages
Details: 40 individual phages sequenced, results from 38 clones

Q: Which “number of sequenced phages in which the peptide was detected” value (shortened to “number of sequenced phages”) does the source give for “AIGDKAYTLRPT-NH2 (C-terminal amide) [PB5-14]” here?
A: The value was 3 phages.

Q: Which “number of sequenced phages” value does the source give for “ARSLEPAPSRHS-NH2 (C-terminal amide) [PB5-5]” here?
A: Its value is 3 phages.

Q: How did the “number of sequenced phages” value turn out when QFAALPVRAHYG-NH2 [PB5-3] was run?
A: Its value is 6 phages.
